Drawing on paper doi:10.1101/157743, this text covers binding for one molecule.

This assay deals with tandem Myc epitope fusion of PGM2 (Myc2-PGM2) (Toxoplasma gondii). Put plainly: co-IP.

No constants are given. Whether binding was seen depends on the method and setting. In cells and extracts the contact can be indirect. Tags and fused reporters may be left off the sequences shown.

B1: parafusin related protein 1 (PRP1) (protein, UniProt Q95WU0 1-637)
chain: MGAKASRMRTKEEACRGSANPSHKGLPADQILSRPTTAYQDQKPGTSGLRKKTKVFMQKDYLANFAQSVFNCLPEEEKKGGTLLVSGDGRFFSHEAIYEICSIAAGNGVGRVWIGLNGLASTPACSAIIRERENGICFGGFLLTASHNPGGIDEDFGVKYDTANGAPGYEALMNEVWEKSKTISTIKYAKLPKFSIDKLGVQVNIDGAFQVEVIDPIEDWLKLMKEAFHFPAIKRLLALPHFSFVYDSMHGVSGPYAEKLFIEEFGAKRECLMRQDPLPDFGGHHPDPNLTYAEELVAKMKVLHPDQVDASTPLFGAAGDGDCDRNMILGRGFFVTPSDSVALIALYAEKCIPYFFVDKATGKGGLTGLARSMPTSRALDNVAKKLNKDVYETPTGWKYFTNLMDASRISICGEESFGTGSVHVREKDGLWAVLAWLSILAYRNGCMGDVEKERELLQEGKSVDVSPPATKETDFVSVQQIVEEFWKEYGRNFYCRYDFENKDSASAHEMLQALEELSKSSPAEITGKVASHVDENLLKEMEIDSMDWFKYTDPVDKQVSDHQGVRLFLKGGSRIIWRLSGTGSTGATIRVYMERYEPDASKVLQDERTALKDIAAFALQFCDMKKYIGTETPTVIT
B1: the binding result is “no binding”.
